Test results reported in patent US9333193B2, “Compositions and methods for treating tuberculosis” (priority 2010, dated 2016).

system: Mycobacterium smegmatis mc2155; assay: Anti-mycobacterial activity of nitazoxanides, MIC in Middlebrook 7H9; format: cell-based; conditions: none of the other mycobacterial strains decolorized the compounds
Experimental: (1) Strains: Mycobacterium smegmatis mc2155, Mycobacterium chelonae EOP-1, Mycobacterium marinum ATCC 927, Mycobacterium avium Va14(T), and Mycobacterium abscessus AAy-P-1).
(2) Medium: Middlebrook 7H9 containing 0.5% (vol/vol) glycerol and 10% (vol/vol) oleic acid-albumin.
(3) Incubation Temperature: 37° C., except M. marinum 30° C.
(4) Nitazoxanides: Precipitates were present in wells of nitazoxanides with high concentrations (250-31 μg/mL) except for 162080, 162088, 16b2026, and 16b2031.
(5) Decolorization: Almost all the yellow nitazoxanides, namely 16b1090, 16b1092 and 16b1093, 16b1094, 16b2023, 16b2025, and 16b2026 were decolorized by M. smegmatis strain mc2155. None of the other mycobacterial strains decolorized the compounds. Note that the compound numbers are also referred to herein with the prefix VPC.
The strains used were Mycobacterium smegmatis mc2155, Mycobacterium chelonae EOP-1, Mycobacterium marinum ATCC 927, Mycobacterium avium Va14(T), and Mycobacterium abscessus AAy-P-1. The medium use was Middlebrook 7H9 containing 0.5% (vol/vol) glycerol and 10% (vol/vol) oleic acid-albumin. Incubation Temperature was 37° C., except for M. marinum at 30° C. For nitazoxanides, precipitates were present in wells of nitazoxanides with high concentrations (250-31 μg/mL) except for 162080, 162088, 16b2026, and 16b2031.
Decolorization: Almost all the yellow nitazoxanides, namely 16b1090, 16b1092 and 16b1093, 16b1094, 16b2023, 16b2025, and 16b2026 were decolorized by M. smegmatis strain mc2155. None of the other mycobacterial strains decolorized the compounds.

| Compound | Decolorization of the yellow compound by M. smegmatis strain mc2155 |
| --- | --- |
| O=C(Nc1sc([N+](=O)[O-])cc1[N+](=O)[O-])c1ccccc1 [VPC16b1090] | decolorized |
| O=C(Nc1sc([N+](=O)[O-])cc1[N+](=O)[O-])c1cccc(C(F)(F)F)c1 [VPC16b1092] | decolorized |
| O=C(Nc1sc([N+](=O)[O-])cc1[N+](=O)[O-])c1cccs1 [VPC16b1093, N-(3,5-Dinitrothiophen-2-yl)thiophene-2-carboxamide] | decolorized |
| O=C(Nc1sc([N+](=O)[O-])cc1[N+](=O)[O-])c1ccoc1 [VPC16b1094] | decolorized |
| O=C(Nc1sc([N+](=O)[O-])cc1[N+](=O)[O-])c1cc(C(F)(F)F)ccc1Cl [VPC16b2026, 2-Chloro-N-(3,5-dinitrothiophen-2-yl)-5-(trifluoromethyl)benzamide] | decolorized |
